Reference: patent publication US20140221340A1 (KYOWA HAKKO KIRIN CO., LTD., priority 2011, published 2014)
Some results were stated once for a whole list of compounds, not compound by compound. At least one compound was matched to its structure with a doubt left.

These compounds were tested against T1, human CCR10 (Homo sapiens, UniProt P46092) (assay: Calcium assay of human CCR10 (inhibition of CTACK-induced increase in intracellular calcium ion concentration in hCCR10G16 cells)). Details: at a concentration of 100 nmol/L; human recombinant CTACK.
T1 construct: expressed in transfected cells; host or cells: KJMGER8 cell (cell line derived from Namalwa cell); expression induced with 10 nmol/L β-estradiol
T1 sequence (P46092 1-362): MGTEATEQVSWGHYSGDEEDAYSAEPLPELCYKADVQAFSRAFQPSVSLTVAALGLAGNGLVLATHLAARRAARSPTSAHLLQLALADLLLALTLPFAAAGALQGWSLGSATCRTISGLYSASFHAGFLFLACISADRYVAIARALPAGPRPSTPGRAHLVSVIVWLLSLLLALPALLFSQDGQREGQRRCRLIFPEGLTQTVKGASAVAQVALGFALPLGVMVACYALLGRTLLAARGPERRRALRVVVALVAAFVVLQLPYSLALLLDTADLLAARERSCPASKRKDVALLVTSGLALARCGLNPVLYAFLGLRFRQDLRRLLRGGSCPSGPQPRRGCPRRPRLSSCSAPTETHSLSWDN
Type: cell-based
In short: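 KJMGER8-derived hCCR10G16 cells (human CCR10 plus Gα16, expression induced 24 h with 10 nmol/L β-estradiol) were dye-loaded and preincubated with compound for 30 min at 37 °C, then stimulated with CTACK (300 nmol/L stock). Calcium flux over ~5 min (max−min fluorescence) gave percent inhibition versus DMSO control.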
In the case of `O=C(c1cnc2c(S(=O)(=O)Nc3nncs3)cnn2c1Nc1cc(Cl)ccc1Cl)N1CCC(c2ccc(F)cc2)CC1` [a-78, 7-(2,5-Dichlorophenylamino)-6-[4-(4-fluorophenyl)piperidine-1-carbonyl]-N-(1,3,4-thiadiazol-2-yl)pyrazolo[1,5-a]pyrimidine-3-sulfonamide], the “antagonistic effect against CCR10” value is reported as “showed an antagonistic effect against CCR10”.
In the case of `COC(=O)NS(=O)(=O)c1cnn2c(Nc3ccc(F)cc3C)c(C(=O)N3CCC(c4ccccc4)CC3)cnc12` [a-72, Methyl 7-(4-fluoro-2-methylphenylamino)-6-(4-phenylpiperidine-1-carbonyl)pyrazolo[1,5-a]pyrimidin-3-ylsulfonylcarbamate], the “antagonistic effect against CCR10” value is reported as “showed an antagonistic effect against CCR10”.
`CCNC(=O)NS(=O)(=O)c1cnn2c(Nc3ccc(Cl)c(Cl)c3)c(C(=O)N3CCC(c4ccc(F)cc4)CC3)cnc12` [a-39, 7-(3,4-Dichlorophenylamino)-N-(ethylcarbamoyl)-6-[4-(4-fluorophenyl)piperidine-1-carbonyl]pyrazolo[1,5-a]pyrimidine-3-sulfonamide] was tested, and the “antagonistic effect against CCR10” value was “showed an antagonistic effect against CCR10”.
For `Cc1cc(F)ccc1Nc1c(C(=O)N2CCC(c3ccccc3)CC2)cnc2c(S(=O)(=O)NC(=O)Nc3ccccc3)cnn12` [a-67, 7-(4-Fluoro-2-methylphenylamino)-N-phenylcarbamoyl-6-(4-phenylpiperidine-1-carbonyl)pyrazolo[1,5-a]pyrimidine-3-sulfonamide], the “antagonistic effect against CCR10” value was “showed an antagonistic effect against CCR10”.
In the case of `Cc1ccc(Cl)c(Nc2c(C(=O)N3CCC4(CC3)OCc3ccccc34)cnc3c(S(=O)(=O)NC(=O)C4CCC4)cnn23)c1` [a-57, N-{7-(2-Chloro-5-methylphenylamino)-6-[3H-spiro(isobenzofuran-1,4′-piperidine)-1′-carbonyl]pyrazolo[1,5-a]pyrimidin-3-ylsulfonyl}cyclobutanecarboxamide], the “antagonistic effect against CCR10” value is reported as “showed an antagonistic effect against CCR10”.
In the case of `CCNC(=O)NS(=O)(=O)c1cnn2c(NCc3ccccc3)c(C(=O)N3CCC(c4ccccc4)CC3)cnc12` [a-76, 7-Benzylamino-N-ethylcarbamoyl-6-(4-phenylpiperidine-1-carbonyl)pyrazolo[1,5-a]pyrimidine-3-sulfonamide], the “antagonistic effect against CCR10” value is reported as “showed an antagonistic effect against CCR10”.
`Cc1ccc(Cl)c(Nc2c(C(=O)N3CCC4(CC3)OCc3ccccc34)cnc3c(S(=O)(=O)NC(=O)C4(C)COC4)cnn23)c1` [a-58, N-{7-(2-Chloro-5-methylphenylamino)-6-[3H-spiro(isobenzofuran-1,4′-piperidine)-1′-carbonyl]pyrazolo[1,5-a]pyrimidin-3-ylsulfonyl}-3-methyloxetane-3-carboxamide] was tested, and the “antagonistic effect against CCR10” value was “showed an antagonistic effect against CCR10”.
`CCNC(=O)NS(=O)(=O)c1cnn2c(Nc3ccc(Cl)cc3Cl)c(C(=O)N3CCC(c4ccc(F)cc4)CC3)cnc12` [a-20, 7-(2,4-Dichlorophenylamino)-N-(ethylcarbamoyl)-6-[4-(4-fluorophenyl)piperidine-1-carbonyl]pyrazolo[1,5-a]pyrimidine-3-sulfonamide] was tested, and the “antagonistic effect against CCR10” value was “showed an antagonistic effect against CCR10”.
In the case of `CCN(CC)S(=O)(=O)c1cnn2c(Nc3ccc(F)cc3C)c(C(=O)N3CCC(c4ccccc4)CC3)cnc12` [a-62, N,N-Diethyl-7-(4-fluoro-2-methylphenylamino)-6-(4-phenylpiperidine-1-carbonyl)pyrazolo[1,5-a]pyrimidine-3-sulfonamide], the “antagonistic effect against CCR10” value is reported as “showed an antagonistic effect against CCR10”.
`Cc1ccc(Cl)c(Nc2c(C(=O)N3CCC4(CC3)OCc3ccccc34)cnc3c(S(=O)(=O)NC(=O)NC4CCOCC4)cnn23)c1` [a-81, 7-(2-Chloro-5-methylphenylamino)-6-[3H-spiro(isobenzofuran-1,4′-piperidine)-1′-carbonyl]-N-(tetrahydro-2H-pyran-4-ylcarbamoyl)pyrazolo[1,5-a]pyrimidine-3-sulfonamide] was tested, and the “antagonistic effect against CCR10” value was “showed an antagonistic effect against CCR10”.
In the case of `Cc1ccc(Cl)c(Nc2c(C(=O)N3CCC(c4ccc(F)cc4)CC3)cnc3c(S(=O)(=O)NC(=O)NC4CC4(F)F)cnn23)c1` (stereo not drawn) [a-37, 7-(2-Chloro-5-methylphenylamino)-N-(2,2-difluorocyclopropylcarbamoyl)-6-[4-(4-fluorophenyl)piperidine-1-carbonyl]pyrazolo[1,5-a]pyrimidine-3-sulfonamide], the “antagonistic effect against CCR10” value is reported as “showed an antagonistic effect against CCR10”.
In the case of `CC1(C(=O)NS(=O)(=O)c2cnn3c(Nc4cc(Cl)ccc4Cl)c(C(=O)N4CCC(c5ccc(F)cc5)CC4)cnc23)COC1` [a-25, N-{7-(2,5-Dichlorophenylamino)-6-[4-(4-fluorophenyl)piperidine-1-carbonyl]pyrazolo[1,5-a]pyrimidin-3-ylsulfonyl}-3-methyloxetane-3-carboxamide], the “antagonistic effect against CCR10” value is reported as “showed an antagonistic effect against CCR10”.
With `CCC(=O)NS(=O)(=O)c1cnn2c(Nc3cc(C)ccc3Cl)c(C(=O)N3CCC4(CC3)OCc3ccccc34)cnc12` [a-56, N-{7-(2-Chloro-5-methylphenylamino)-6-[3H-spiro(isobenzofuran-1,4′-piperidine)-1′-carbonyl]pyrazolo[1,5-a]pyrimidin-3-ylsulfonyl}propionamide] the “antagonistic effect against CCR10” value was “showed an antagonistic effect against CCR10”.
With `CCONS(=O)(=O)c1cnn2c(Nc3cc(Cl)ccc3Cl)c(C(=O)N3CCC(c4ccc(F)cc4)CC3)cnc12` [a-28, 7-(2,5-Dichlorophenylamino)-N-ethoxy-6-[4-(4-fluorophenyl)piperidine-1-carbonyl]-pyrazolo[1,5-a]pyrimidine-3-sulfonamide] the “antagonistic effect against CCR10” value was “showed an antagonistic effect against CCR10”.
In the case of `O=C(NC1CC1)NS(=O)(=O)c1cnn2c(Nc3ccc(F)cc3Cl)c(C(=O)N3CCC(c4ccc(F)cc4)CC3)cnc12` [a-21, 7-(2-Chloro-4-fluorophenylamino)-N-(cyclopropylcarbamoyl)-6-[4-(4-fluorophenyl)piperidine-1-carbonyl]pyrazolo[1,5-a]pyrimidine-3-sulfonamide], the “antagonistic effect against CCR10” value is reported as “showed an antagonistic effect against CCR10”.
For `CCNC(=O)NS(=O)(=O)c1cnn2c(Nc3cc(Cl)ccc3Cl)c(C(=O)N3CCC(c4ccc(F)cc4)CC3)cnc12` [a-23, 7-(2,5-Dichlorophenylamino)-N-(ethylcarbamoyl)-6-[4-(4-fluorophenyl)piperidine-1-carbonyl]pyrazolo[1,5-a]pyrimidine-3-sulfonamide], the “antagonistic effect against CCR10” value was “showed an antagonistic effect against CCR10”.
With `CC(=O)NS(=O)(=O)c1cnn2c(Nc3cc(Cl)ccc3F)c(C(=O)N3CCC(c4ccc(F)cc4)CC3)cnc12` [a-33, N-{7-(5-Chloro-2-fluorophenylamino)-6-[4-(4-fluorophenyl)piperidine-1-carbonyl]pyrazolo[1,5-a]pyrimidin-3-ylsulfonyl}acetamide] the “antagonistic effect against CCR10” value was “showed an antagonistic effect against CCR10”.
With `Cc1cc(F)ccc1Nc1c(C(=O)N2CCC(c3ccccc3)CC2)cnc2c(S(=O)(=O)NC(=O)CO)cnn12` [a-65, N-[7-(4-Fluoro-2-methylphenylamino)-6-(4-phenylpiperidine-1-carbonyl)pyrazolo[1,5-a]pyrimidin-3-ylsulfonyl]-2-hydroxyacetamide] the “antagonistic effect against CCR10” value was “showed an antagonistic effect against CCR10”.
